{
  "source": "PubChem BioAssay AID540276",
  "about": "(National Center for Advancing Translational Sciences (NCATS), 2011)",
  "note": "Screen size: about 300,000 compounds; about 5,400 (1.8%) were called active. This list was built around the results that the source calls inconclusive (neither active nor inactive); the mix of calls is not that of the screen. The call rests on the fitted dose curve; tested in HEK293 cells. Where the call is inconclusive, the potency comes from a doubtful curve fit. On the % scale 0 is the no-effect control and ±100 the full control effect; potency means the concentration at half of the fitted maximal effect.",
  "data": [
    {"experiment": "qHTS for inhibitors of binding or entry into cells for Marburg Virus", "settings": "Marburg virus pseudotyped entry inhibition, cell reporter; activity change, negative = inhibition: at 37.8 µM (top of the series) unless noted", "values": [
      {"smiles": "C=CCN(CC=C)CCOc1ccc(C)cc1[N+](=O)[O-]", "Potency": "inconclusive: 7.3 µM [inhibitor, partial curve]"},
      {"smiles": "Cc1ccc(C)c(N2CCN(CC(=O)Nc3ccc([N+](=O)[O-])cc3C(=O)Nc3ccccc3F)CC2)c1", "Potency": "inconclusive: 32.6 µM [inhibitor, partial curve, poor fit]"},
      {"smiles": "C=C1CC2(OC1=O)c1ccccc1CCc1ccccc12", "Potency": "inconclusive: 11.2 µM [inhibitor, partial curve, poor fit]"},
      {"smiles": "Cc1cc(C)c(S(=O)(=O)Nc2cc(C)on2)c(C)c1", "Potency": "inconclusive: 31.6 µM [activator, single point]"},
      {"smiles": "O=C(O)c1ccc(Cl)c(S(=O)(=O)Nc2ccccc2Cc2ccccc2)c1", "activity change, negative = inhibition": "inactive: -20.4% [at 46.1 µM]"},
      {"smiles": "COc1ccc(C=CN(CCc2ccc(OC)c(OC)c2)C(=O)c2ccccn2)cc1", "activity change, negative = inhibition": "inactive: -10.7% [at 14.2 µM]"},
      {"smiles": "O=[N+]([O-])c1c(Nc2cccc(O)c2)cc(Cl)c2nonc12", "Potency": "inconclusive: 12.6 µM [inhibitor, partial curve, poor fit]"},
      {"smiles": "COc1ccccc1Nc1nc(N)nc(-c2oc3ccccc3c2C)n1", "Potency": "inconclusive: 16.4 µM [inhibitor, single point]"},
      {"smiles": "COc1cccc(OCC(O)CN2CCN(CCN3C(=O)c4cccc5cccc(c45)C3=O)CC2)c1", "note": "(stereo not drawn)", "Potency": "inconclusive: 35.5 µM [inhibitor, single point]"},
      {"smiles": "CCCCC(OC(=O)c1ccco1)C(=O)NCc1ccc(C)cc1", "note": "(stereo not drawn)", "Potency": "inconclusive: 2.51 µM [inhibitor, partial curve, poor fit]"},
      {"smiles": "O=C(NC1C=CS(=O)(=O)C1)c1sc2ccccc2c1Cl", "note": "(stereo not drawn)", "Potency": "active: 20.6 µM"},
      {"smiles": "CCN(CC)c1ccc(NC(=O)c2ccc(Cl)nc2)cc1", "Potency": "active: 7.08 µM"},
      {"smiles": "CCOc1ccc(C(=O)c2oc3ccccc3c2NC(=O)c2cc(=O)c3ccc(C)cc3o2)cc1", "Potency": "inconclusive: 28.2 µM [activator, partial curve, poor fit]"},
      {"smiles": "COc1ccc(OCc2cc(C(=O)N3CCOCC3)no2)c(Cl)c1", "Potency": "inconclusive: 6.31 µM [activator, partial curve]"},
      {"smiles": "CN(C)c1ccc(NC(=O)c2ccc([N+](=O)[O-])cc2Cl)cc1", "Potency": "inconclusive: 0.316 µM [activator, full curve, poor fit]"},
      {"smiles": "CN1CCN(c2ccc(N)c(N3CCN(C)CC3)c2)CC1", "Potency": "inconclusive: 10 µM [inhibitor, partial curve, poor fit]"},
      {"smiles": "CC(C)(C)c1ccc(C(=O)Nc2ccc(NC(=O)c3ccco3)cc2)cc1", "activity change, negative = inhibition": "inactive: -7.92%"},
      {"smiles": "OCC1OC(n2cnc3c(NCc4ccco4)ncnc32)C(O)C1O", "note": "(stereo not drawn)", "Potency": "inconclusive: 3.55 µM [inhibitor, full curve, poor fit]"},
      {"smiles": "O=C(Nc1ccc2nc(-c3cccnc3)[nH]c2c1)C12CC3CC(CC(C3)C1)C2", "Potency": "inconclusive: 35.5 µM [inhibitor, single point]"},
      {"smiles": "COc1ccc(Nc2nc(N)c3ccccc3n2)c(OC)c1", "Potency": "inconclusive: 5.01 µM [activator, single point]"},
      {"smiles": "COc1ccccc1C(=O)Nc1ccc(S(=O)(=O)Nc2nc(C)cc(C)n2)cc1", "activity change, negative = inhibition": "inactive: -3.44% [at 46.1 µM]"},
      {"smiles": "O=C(O)c1ccc(Cl)c(S(=O)(=O)Nc2ccc(OCc3ccccc3)cc2)c1", "activity change, negative = inhibition": "inactive: 4.99% [at 46.1 µM]"},
      {"smiles": "COc1ccc(OC(=O)c2ccc3nsnc3c2)cc1", "Potency": "inconclusive: 0.562 µM [activator, full curve, poor fit]"},
      {"smiles": "Cc1cc(C)c(S(=O)(=O)c2c(C)cccc2C)c(OCC(C)C)n1", "Potency": "inconclusive: 32.6 µM [inhibitor, single point]"},
      {"smiles": "O=Cc1cn[nH]c1-c1cccc([N+](=O)[O-])c1", "Potency": "inconclusive: 35.5 µM [inhibitor, single point]"},
      {"smiles": "Cc1ccc(NC(=O)N2CCc3ccccc3C2)cc1", "Potency": "inconclusive: 0.92 µM [activator, partial curve, poor fit]"},
      {"smiles": "COc1ccc(C=C(c2ccc(OC)cc2)c2ccc(OC)cc2)cc1", "activity change, negative = inhibition": "inactive: 0.711%"},
      {"smiles": "CC1CCN(S(=O)(=O)c2ccc3c(c2)N(CC(=O)NC(C)(C)C)C(=O)CS3)CC1", "Potency": "inconclusive: 5.01 µM [inhibitor, single point]"},
      {"smiles": "Cc1c(NC(=S)NC(C)(C)C)c(=O)n(-c2ccccc2)n1C", "activity change, negative = inhibition": "inactive: -23.9% [at 46.1 µM]"},
      {"smiles": "Cc1cccc(OCc2nnc(SCC(=O)N3c4ccccc4Sc4ccc(Cl)cc43)o2)c1", "Potency": "inconclusive: 11.2 µM [inhibitor, partial curve, poor fit]"},
      {"smiles": "CCCCCn1c(CN(C)Cc2ccccc2)nc2c1c(=O)n(C)c(=O)n2C", "Potency": "inconclusive: 16.4 µM [inhibitor, single point]"},
      {"smiles": "COc1ccc2[nH]c(=O)c(CN(CCN3CCCC3)C(=O)Nc3ccccc3Cl)cc2c1", "Potency": "inactive"},
      {"smiles": "CCC(=O)Nc1cccc(NC(=S)NC(=O)c2ccccc2)c1", "activity change, negative = inhibition": "inactive: -6.15%"},
      {"smiles": "O=c1c2c3c(sc2nc(NCCO)n1Cc1ccco1)CCCCC3", "Potency": "inconclusive: 2.24 µM [activator, partial curve, poor fit]"},
      {"smiles": "COc1cc(-c2nc(-c3ccccc3)c(-c3ccc(Br)cc3)[nH]2)cc(OC)c1O", "Potency": "inconclusive: 10 µM [inhibitor, partial curve, poor fit]"},
      {"smiles": "CCOC(=O)C1(CCOc2ccccc2)CCN(Cc2cnc(SC)nc2)CC1", "Potency": "inconclusive: 35.5 µM [inhibitor, single point]"},
      {"smiles": "CC(NC(=O)Nc1nnc(C(F)(F)F)s1)(C(F)(F)F)C(F)(F)F", "Potency": "inconclusive: 2.51 µM [inhibitor, full curve, poor fit]"},
      {"smiles": "Cc1ccc(N=N/C(=C\\O)C(=O)c2ccncc2)cc1", "Potency": "inconclusive: 8.91 µM [inhibitor, partial curve, poor fit]"},
      {"smiles": "CC(=O)N1CCc2c(sc3c2c(=O)n(Cc2ccccc2)c(=O)n3Cc2ccccc2Cl)C1", "activity change, negative = inhibition": "inactive: -22.9% [at 46.1 µM]"},
      {"smiles": "COc1cccc(NC2=Nc3cccc4cccc2c34)c1", "activity change, negative = inhibition": "inactive: -10.3%"},
      {"smiles": "O=C(CSc1nccn1Cc1ccco1)Nc1ccccc1", "Potency": "inconclusive: 1.26 µM [inhibitor, single point]"},
      {"smiles": "O=C1C(=O)N(CCN2CCOCC2)C(c2ccncc2)/C1=C(/O)c1ccc2c(c1)OCO2", "note": "(stereo not drawn)", "activity change, negative = inhibition": "inactive: 3.23%"},
      {"smiles": "Cc1nn(Cc2ccc(Cl)cc2)c(Cl)c1/C=N/NC(=O)c1cccnc1", "Potency": "inconclusive: 35.5 µM [inhibitor, single point]"},
      {"smiles": "COc1ccccc1NC(=O)C(=O)Nc1ccc2c(c1)N(C(=O)C1CC1)CCC2", "activity change, negative = inhibition": "inactive: -17%"},
      {"smiles": "S=C(NCCc1ccccc1)NCC(c1ccco1)N1CCCCC1", "note": "(stereo not drawn)", "Potency": "inconclusive: 11.2 µM [inhibitor, partial curve, poor fit]"},
      {"smiles": "COc1ccc(OCC(=O)O/N=C(\\N)Cc2cccs2)cc1", "Potency": "inconclusive: 3.55 µM [activator, partial curve, poor fit]"},
      {"smiles": "Fc1cccc(F)c1/C=C/c1ccc2ccccc2n1", "Potency": "inconclusive: 11.2 µM [inhibitor, single point]"},
      {"smiles": "COc1cc(C=C(c2nc3ccccc3s2)c2nc3ccccc3s2)cc(OC)c1O", "activity change, negative = inhibition": "inactive: 13.3%"},
      {"smiles": "NNC(=O)c1cccc(COc2ccccc2Br)c1", "Potency": "inconclusive: 10 µM [inhibitor, single point]"},
      {"smiles": "Cc1cccc(NC(=O)CN2C(=O)COc3ccc(Cl)cc32)c1C", "activity change, negative = inhibition": "inactive: 0.44%"},
      {"smiles": "CCn1nnc(NC(=O)Cc2ccc(Cl)cc2)n1", "activity change, negative = inhibition": "inactive: -1.58%"},
      {"smiles": "Cc1ccc(NC(=S)c2nc3ccccc3s2)cc1", "Potency": "inconclusive: 15.8 µM [inhibitor, partial curve, poor fit]"},
      {"smiles": "COc1cccc(C(=O)N2CCc3cc(OC)c(OC)cc3C2COc2ccc3c(C)cc(=O)oc3c2)c1", "note": "(stereo not drawn)", "activity change, negative = inhibition": "inconclusive: 2.1% [activator] [at 46.1 µM]"},
      {"smiles": "COc1ccc(CCN(C)C(=O)c2ccc(S(=O)(=O)NCc3ccco3)cc2)cc1OC", "Potency": "inconclusive: 1.12 µM [activator, full curve, poor fit]"},
      {"smiles": "CCCC(=O)NC(=S)Nc1cccc2c(O)cccc12", "activity change, negative = inhibition": "inactive: -0.104% [at 46.1 µM]"},
      {"smiles": "CCN(CC)S(=O)(=O)c1ccc(NC(=O)C2CCCO2)cc1", "note": "(stereo not drawn)", "Potency": "inconclusive: 0.259 µM [activator, single point]"},
      {"smiles": "O=C1[C@H]2[C@H]3[C@H](O)[C@H](O)C/C(=N\\OCc4ccccc4)[C@H]3CC[C@H]2C(=O)N1Cc1ccc2c(c1)OCO2", "activity change, negative = inhibition": "inactive: -37.8% [at 14.2 µM]"},
      {"smiles": "O=[N+]([O-])c1ccc(N2CCN(c3ccccc3O)CC2)c(Cl)c1", "Potency": "inconclusive: 8.91 µM [inhibitor, partial curve, poor fit]"},
      {"smiles": "Cc1ccc(S(=O)(=O)n2nccc2-c2c(-c3ccccc3)noc2C)cc1", "Potency": "inconclusive: 7.94 µM [inhibitor, partial curve, poor fit]"},
      {"smiles": "O=C(CN1CCCCC1)Nc1ccccc1NC(=O)CN1CCCCC1", "Potency": "inconclusive: 20 µM [inhibitor, partial curve, poor fit]"},
      {"smiles": "COc1cccc(OC)c1C(=O)Nc1cccc(C(C)=O)c1", "Potency": "inconclusive: 2.91 µM [inhibitor, partial curve, poor fit]"},
      {"smiles": "CCN(CC)S(=O)(=O)c1ccc2oc(C(=O)N3CCc4ccccc4C3)c(C)c2c1", "activity change, negative = inhibition": "inactive: 1.23%"},
      {"smiles": "O=C(NC12CC3CC(CC(C3)C1)C2)c1cnccn1", "Potency": "inconclusive: 6.51 µM [activator, single point]"},
      {"smiles": "COc1ccc(NCc2nnc(SCc3ccc(Cl)cc3)n2-c2ccccc2)cc1", "Potency": "inconclusive: 2.82 µM [inhibitor, single point]"},
      {"smiles": "Cc1cccc(NC(=O)CSc2nc3ccccc3c(=O)n2C)c1", "Potency": "active: 7.08 µM"},
      {"smiles": "CCCC(c1nnnn1CC(=O)OCC)N(Cc1cc2c(C)cc(C)cc2[nH]c1=O)C1CCCC1", "note": "(stereo not drawn)", "Potency": "inactive"},
      {"smiles": "CCOc1ccc(-n2c(=O)c3c(C)c(C)sc3n(Cc3ccc(C(C)(C)C)cc3)c2=O)cc1", "Potency": "inconclusive: 11.2 µM [inhibitor, single point]"},
      {"smiles": "Cc1ccccc1C1C(C#N)=C2N=C(N)c3c(sc4c3CCCCC4)N2C2=C1C(=O)CCC2", "note": "(stereo not drawn)", "Potency": "inconclusive: 23.1 µM [inhibitor, partial curve, poor fit]"}
    ]}
  ]
}
